Results from patent publication US20060252053A1 (Dana-Farber, published 2006).
These are yes or no findings as the source states them, for the method shown. Binding can be weak; no strength is given. Sequences can lack the tags named with a protein.

Target: T1, recombinant (His)6-caspase-7 polypeptide (UniProt P55210)
T1 sequence: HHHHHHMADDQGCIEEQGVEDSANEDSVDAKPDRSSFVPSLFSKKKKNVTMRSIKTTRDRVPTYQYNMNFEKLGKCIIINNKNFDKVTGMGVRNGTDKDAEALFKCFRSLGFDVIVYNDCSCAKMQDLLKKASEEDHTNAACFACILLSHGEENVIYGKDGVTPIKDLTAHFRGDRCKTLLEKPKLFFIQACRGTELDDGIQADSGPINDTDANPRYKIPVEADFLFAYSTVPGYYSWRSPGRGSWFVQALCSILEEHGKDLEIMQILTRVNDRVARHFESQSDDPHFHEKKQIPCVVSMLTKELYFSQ
Test: GST-Bcl2L12 on GSH beads with increasing amounts of soluble (His)6-caspase-7, Coomassie stain and western blot

Substance: GST-Bcl2L12 polypeptide
- binding: binds
